Test results from patent US11850250B2, “Use of homoharringtonine in preparation of betacoronavirus replication inhibitor in human” (priority 2020, dated 2023).
At least one structure is not confirmed: it was looked up by name or label, or the drawing left a doubt.

What was measured:
[1] = test system: foot-and-mouth disease virus (FMDV); settings: cited from earlier work
SARS-CoV-2 [2] = settings: in vivo, ip
FMDV = settings: 50 nM; cited from earlier work
SARS-CoV-2 [3] = type: cell-based

Compound: COC(=O)C[C@](O)(CCCC(C)(C)O)C(=O)O[C@@H]1C(OC)=C[C@]23CCCN2CCc2cc4c(cc2[C@H]13)OCO4 [HHT, Homoharringtonine]
- Concentration providing effective protection for IBRS-2 cells [1]: ≥ 6.2 µM
- Elimination of SARS-CoV-2 in the mouse models (viral load in lungs) (SARS-CoV-2 [2]): effectively eliminate
- Expression of FMDV virus proteins VP0, VP1, VP2 and VP3 (FMDV): almost completely block
- Inhibition of cytopathic effect of Vero E6 cells infected by SARS-CoV-2 (SARS-CoV-2 [3]): significantly inhibit the cytopathic effect
